The record followed here is PubChem BioAssay AID330 (DTP/NCI, 2004).

The list shows only some results of the screen, not a fair sample: it is rich in T/C values a quarter to a half above the control, in often repeated tests (any T/C) and in doses without a T/C. Other doses and runs of a compound stand elsewhere. T/C gives the treated animals as a percentage of the vehicle group. Some entries give survivors of the animals treated and no T/C: the source files T/C as zero there, which appears to mark a toxic dose or a test without result, not a measured value. Some doses without a T/C left all or most animals alive at the check, yet need not have been tolerated: the source hardly ever lists a survival T/C far under the control, and the zero likely stands for such cases as well. Counts of survivors are from the toxicity check (mostly the fifth day) where no day follows; animals may have died later. Schedule codes are those of the source, read here as Q, the interval in days (D) or hours (H), X, the number of doses. Some entries hold several experiments; the results are listed from low to high. Additions like (4×) say how often a value occurs here. For survival time, the PubChem record calls one and a half times the control and up active, and a quarter to a half above the control has no call in these data; cut-offs in other NCI protocols can differ.

The test system of this experiment is P388 leukemia ip, CD2F1 mice, survival T/C. Put plainly: NCI In Vivo Anticancer Drug Screen. Data for tumor model P388 Leukemia (intraperitoneal) in CD2F1 (CDF1) mice. The following applies: T/C endpoint: median survival time, higher T/C = longer survival.
Where [1] appears, read: dose: 100.0 mg/kg/injection, schedule: Q01DX009 (ip), vehicle: Klucel (hydroxypropylcellulose) (HPC).
The mark [2] stands for this setting: dose: 200.0 mg/kg/injection, schedule: Q01DX009 (ip), vehicle: Klucel (hydroxypropylcellulose) (HPC).
The mark [3] stands for this setting: dose: 200.0 mg/kg/injection, schedule: Q01DX009 (ip), vehicle: saline with Tween-80.
The mark [4] stands for this setting: dose: 50.0 mg/kg/injection, schedule: Q01DX009 (ip), vehicle: Klucel (hydroxypropylcellulose) (HPC).
The mark [5] stands for this setting: dose: 200.0 mg/kg/injection, schedule: Q01DX009 (ip), vehicle: saline.
Where [6] appears, read: dose: 50.0 mg/kg/injection, schedule: Q01DX009 (ip), vehicle: saline.
[7] abbreviates: dose: 25.0 mg/kg/injection, schedule: Q01DX009 (ip), vehicle: Klucel (hydroxypropylcellulose) (HPC).
Where [8] appears, read: dose: 25.0 mg/kg/injection, schedule: Q01DX009 (ip), vehicle: saline.
The mark [9] stands for this setting: dose: 240.0 mg/kg/injection, schedule: Q01DX005 (ip), vehicle: Klucel (hydroxypropylcellulose) (HPC).

For the compound `CC(C)CC1NC(=O)C2N=C(OC2C)C2CSSCC(NC(=O)c3csc1n3)C1=NC(C(=O)NC(CC(C)C)c3nc(cs3)C(=O)N2)C(C)O1` (stereo not drawn), the survivor count reads like this: (dose: 1.6 mg/kg/injection, schedule: Q01DX005 (ip), vehicle: DMSO) 6 of 6; (dose: 3.0 mg/kg/injection, schedule: Q01DX005 (ip), vehicle: DMSO) 0 of 5; (dose: 6.0 mg/kg/injection, schedule: Q01DX005 (ip), vehicle: DMSO) 0 of 5.

On to `O=C(Cn1ccnc1)Nc1ccc(Cl)cc1C(=O)c1ccccc1`, for which, where the note is “dose: 200.0 mg/kg/injection, schedule: Q01DX005 (ip), vehicle: saline with Tween-80”, the survivor count is on record as 6 of 6.

For `O=C1c2ccccc2C(=O)c2c1cc1cccccc2-1`, the survivor count (dose: 25.0 mg/kg/injection, schedule: Q01DX005 (ip), vehicle: saline with Tween-80) is 6 of 6; the survivor count (dose: 50.0 mg/kg/injection, schedule: Q01DX005 (ip), vehicle: saline with Tween-80) is 6 of 6; the survivor count (dose: 100.0 mg/kg/injection, schedule: Q01DX005 (ip), vehicle: saline with Tween-80) is on record as 6 of 6.

Regarding `O=P(c1ccccc1)(c1ccccc1)c1ccccc1.O=P(c1ccccc1)(c1ccccc1)c1ccccc1.O=P(c1ccccc1)(c1ccccc1)c1ccccc1.O=P(c1ccccc1)(c1ccccc1)c1ccccc1.[O-][Cl+3]([O-])([O-])O.[Zn+2]`, the survivor count runs as follows: (dose: 200.0 mg/kg/injection, schedule: Q01DX001 (ip), vehicle: saline with Tween-80) 2 of 6 and 3 of 6; (dose: 400.0 mg/kg/injection, schedule: Q01DX001 (ip), vehicle: saline with Tween-80) 0 of 6.

As for `Cc1ccc(NC(=O)NC(=O)CCl)cc1`, the survivor count reads like this: (dose: 50.0 mg/kg/injection, schedule: Q01DX009 (ip), vehicle: saline with Tween-80) 5 of 6; under setting [1], 0 of 6; under setting [2], 0 of 6 (2×); under setting [3], 0 of 6.

With `CCOC(=O)C1=C(C)O/C(=C/c2ccco2)C1=O`, the survivor count is on record as 6 of 6 under setting [4] and 2 of 6 under setting [2].

Regarding `CC[n+]1ccc(C(=O)NN)cc1`, the survivor count reads like this: (dose: 100.0 mg/kg/injection, schedule: Q04DX002 (ip), vehicle: saline) 2 of 6; (dose: 200.0 mg/kg/injection, schedule: Q04DX002 (ip), vehicle: saline) 3 of 6; (dose: 400.0 mg/kg/injection, schedule: Q04DX002 (ip), vehicle: saline) 2 of 6.

On to `CN(N=O)C(=O)NCCNC(=O)C1OC(n2ccc(=O)[nH]c2=O)C(O)C1O` (stereo not drawn), for which the T/C is 128 % of control under setting [5] and 126 % of control (dose: 400.0 mg/kg/injection, schedule: Q01DX009 (ip), vehicle: saline).

Regarding `Cn1c(C(O)CCl)nc2c3ccccc3ccc21` (stereo not drawn), the survivor count by setting is: under setting [6], 6 of 6; under setting [5], 6 of 6.

`COc1cc(C2=N/C(=C/c3cccc(O)c3O)C(=O)O2)cc(OC)c1OC`: the survivor count under setting [7] is 6 of 6, the survivor count under setting [4] is reported as 6 of 6, the survivor count under setting [1] is given as 6 of 6 and the survivor count under setting [2] was 6 of 6.

Take `CC(=O)OC1C(CO)OC2C1Oc1nc(=N)c(F)cn12` (stereo not drawn): the T/C by setting is: (dose: 0.78 mg/kg/injection, schedule: Q01DX009 (ip), vehicle: saline with Tween-80) 132 % of control; under setting [8], 142 % of control. The survivor count reads like this: (dose: 6.25 mg/kg/injection, schedule: Q01DX009 (ip), vehicle: saline with Tween-80) 6 of 6; (dose: 12.5 mg/kg/injection, schedule: Q01DX009 (ip), vehicle: saline) 6 of 6; under setting [8], 6 of 6; under setting [6], 6 of 6; (dose: 100.0 mg/kg/injection, schedule: Q01DX009 (ip), vehicle: saline) 6 of 6.

For `CCCCCC(Cn1ccnc1)c1ccccc1Br` (stereo not drawn), the survivor count was 2 of 6 and 4 of 6 (dose: 200.0 mg/kg/injection, schedule: Q04DX003 (ip), vehicle: saline with Tween-80); 3 of 6 (dose: 400.0 mg/kg/injection, schedule: Q04DX003 (ip), vehicle: saline with Tween-80).

Regarding `CC1=[N+]([O-])[N+]([O-])=C(C)C1=O`, the survivor count under setting [7] was 1 of 6.

For `OCC[Se][Se]CCO`, the survivor count is recorded as 0 of 6 (dose: 5.0 mg/kg/injection, schedule: Q01DX009 (ip), vehicle: Klucel (hydroxypropylcellulose) (HPC)); 0 of 6 (dose: 10.0 mg/kg/injection, schedule: Q01DX009 (ip), vehicle: Klucel (hydroxypropylcellulose) (HPC)); 0 of 6 (dose: 20.0 mg/kg/injection, schedule: Q01DX009 (ip), vehicle: Klucel (hydroxypropylcellulose) (HPC)); 0 of 6 under setting [4]; 0 of 6 under setting [1]; 0 of 6 under setting [2].

Regarding `CC1=C(C(=O)Nc2ccc(C)cc2C)C(c2cccc([N+](=O)[O-])c2)C(C(=O)Nc2ccc(C)cc2C)=C(C)N1`, the survivor count runs as follows: (dose: 60.0 mg/kg/injection, schedule: Q01DX005 (ip), vehicle: Klucel (hydroxypropylcellulose) (HPC)) 6 of 6; (dose: 120.0 mg/kg/injection, schedule: Q01DX005 (ip), vehicle: Klucel (hydroxypropylcellulose) (HPC)) 6 of 6; under setting [9], 6 of 6.

For `CC1=C[P+](c2ccccc2)(c2ccccc2)C=C(c2ccccc2)O1`, the T/C is 128 % of control (dose: 1.56 mg/kg/injection, schedule: Q01DX005 (ip), vehicle: saline) and 143 % of control (dose: 3.12 mg/kg/injection, schedule: Q01DX005 (ip), vehicle: saline). Besides, the survivor count was 2 of 5 and 4 of 5 (dose: 12.5 mg/kg/injection, schedule: Q01DX005 (ip), vehicle: saline); 3 of 5 and 4 of 5 (dose: 25.0 mg/kg/injection, schedule: Q01DX005 (ip), vehicle: saline); 0 of 5 (dose: 50.0 mg/kg/injection, schedule: Q01DX005 (ip), vehicle: saline).

As for `C#CC(C)C(C(C)=O)C(C)=O.[C-]#[O+].[C-]#[O+].[C-]#[O+].[C-]#[O+].[C-]#[O+].[C-]#[O+].[Co].[Co]` (stereo not drawn), the survivor count is, setting by setting: (dose: 50.0 mg/kg/injection, schedule: Q01DX005 (ip), vehicle: Klucel (hydroxypropylcellulose) (HPC)) 0 of 6; (dose: 100.0 mg/kg/injection, schedule: Q01DX005 (ip), vehicle: Klucel (hydroxypropylcellulose) (HPC)) 0 of 6; (dose: 200.0 mg/kg/injection, schedule: Q01DX005 (ip), vehicle: Klucel (hydroxypropylcellulose) (HPC)) 0 of 6.

For `O=C(O)CBr`, the survivor count (dose: 50.0 mg/kg/injection, schedule: Q01DX005 (ip), vehicle: other) was 3 of 6 and the survivor count (dose: 100.0 mg/kg/injection, schedule: Q01DX005 (ip), vehicle: other) was 0 of 6.

Regarding `CN(C)C(=O)c1cccc(COc2ccc([N+](=O)[O-])cc2Cl)c1`, the T/C under setting [3] is 130 % of control.

For `Nc1ccc2nc3ccccc3c(NCCCCCCCCNc3c4ccccc4nc4ccc(N)cc34)c2c1`, the T/C (dose: 10.0 mg/kg/injection, schedule: Q01DX009 (ip), vehicle: water) is 146 % of control. Also, the survivor count was 6 of 6 (dose: 20.0 mg/kg/injection, schedule: Q01DX009 (ip), vehicle: water) and 0 of 6 (dose: 40.0 mg/kg/injection, schedule: Q01DX009 (ip), vehicle: water).

On to `O=C1C(N2CCOCC2)=C(N2CC2)C(=O)C(N2CCOCC2)=C1N1CC1`, for which the survivor count (dose: 2.0 mg/kg/injection, schedule: Q01DX009 (ip), vehicle: saline) was 6 of 6.

`CCCCCC(/C=C/C1C(O[Si](C)(C)C(C)(C)C)CC(N(C)C)C1(C/C=C/CCCC#N)S(=O)(=O)c1ccccc1)O[Si](C)(C)C(C)(C)C` (stereo not drawn): the survivor count under setting [9] is reported as 6 of 6.

With `O=C(O)C1CSC(c2ccc(Cl)cc2)N1` (stereo not drawn), the survivor count (dose: 50.0 mg/kg/injection, schedule: Q01DX009 (ip), vehicle: suspension in saline) is 6 of 6 and the survivor count (dose: 100.0 mg/kg/injection, schedule: Q01DX009 (ip), vehicle: suspension in saline) is listed as 6 of 6.
